Experimental data published in PubChem BioAssay AID1347075 (National Center for Advancing Translational Sciences (NCATS), 2019).
In all, about 400,000 compounds went through this assay and about 5,500 (1.4%) were called active. Inconclusive results, whose numbers are uncertain, are shown with a selection of clear calls. The call rests on the fitted dose curve; in most records, active means well fitted cell-killing curve with a large enough effect; inconclusive means small, poorly fitted or top-dose-only effect, or effect the other way; inactive means flat fitted curve, though single readings scatter. Potencies beside an inconclusive call are fits to weak or partial responses and may not hold up. Some compounds were tested as several samples or in several runs, with calls that do not always agree.

Assay: qHTS assay for MDR1-selective chemotherapeutics: Primary screen using the parental adenocarcinoma cell KB-3-1; further: nearly all actives have a fitted effect of over 60% in size
Conditions: KB-3-1 viability, CellTiter-Glo ATP luminescence, 72 h; activity change, negative = cytotoxic: at 46.1 µM (top of the series)
Method in brief: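 Cytotoxicity measured as CellTiter-Glo luminescence after 72 h at 37 C. Compound titrations were pinned onto drug-naive KB-3-1 parental adenocarcinoma cells grown in DMEM with 10% FBS, and normalized data fitted to concentration-response curves.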
On the % scale 0 is the no-effect control and ±100 the full control effect; potency means the concentration at half of the fitted maximal effect.

SMILES	Potency	activity change, negative = cytotoxic
Cc1cccc(C)c1Nc1nnc(SCC(=O)NCc2cccs2)s1	inconclusive: 0.013 µM [cytotoxic, full curve]	–
CCN(CC)S(=O)(=O)c1ccc(OC)c(NC(=O)/C=C/c2ccco2)c1	inconclusive: 23.1 µM [rising, single point]	–
Cc1ccccc1NC(=O)Cn1nnc(C(=O)NCc2ccco2)c1N	active: 18.4 µM	–
Cn1nccc1C(=O)Oc1cccc(/C=N/NC(=O)c2ccccc2O)c1	–	inactive: 1.92%
COc1ccc(CCNC(=O)c2noc3c2CCCC3)cc1OC	inconclusive: 5.8 µM [rising, partial curve, poor fit]	–
O=C(c1ccc(OC2CCN(Cc3ccccc3C(F)(F)F)CC2)cc1)N1CCCCC1	inconclusive: 18.4 µM [cytotoxic, single point]	–
C=C[C@@H]1c2ccccc2N(S(=O)(=O)c2ccc(C)cc2)[C@H](c2ccc(C(F)(F)F)cc2)C1(C#N)C#N	inconclusive: 23.1 µM [cytotoxic, single point]	–
C#CC(CC)(CC)NC(=O)c1cc(S(=O)(=O)N2CCCCC2)ccc1N1CCOCC1	inconclusive: 29.1 µM [rising, single point]	–
CSc1ccc(CCCCCCOC(=O)C(C)(C)C)cc1	–	inactive: -0.643%
c1cncc(Nc2c3ccccc3nc3ccccc23)c1	inconclusive: 20.6 µM [cytotoxic, single point]	–
CCOC(=O)C1CCCNC1=O (stereo not given)	–	inactive: 3.35%
Oc1c(Br)cc(C2N=C(c3ccccc3)NO2)cc1Br (stereo not given)	inconclusive: 20.6 µM [cytotoxic, single point]	–
CC(C)c1ccc(NC(=O)[C@H](Cc2c[nH]c3ccccc23)NC(=O)[C@@H]2Cc3ccccc3CN2)cc1	inconclusive: 20.6 µM [cytotoxic, single point]	–
COc1ccc(S(=O)(=O)N2CCOC2CNC(=O)C(=O)NCCc2ccccc2)cc1C (stereo not given)	inconclusive: 29.1 µM [cytotoxic, single point]	–
CN(c1ccc(OCC(=O)OCC(=O)Nc2ccc([N+](=O)[O-])cc2)cc1)S(=O)(=O)c1cccs1	–	inactive: -0.111%
COc1cccc(CNc2ncc(C(=O)Nc3cc(OC)c(OC)c(OC)c3)c(C)n2)c1	active: 8.2 µM	–
COc1ccc(-n2cnc3cc(N)ccc32)cc1	–	inactive: 8.89%
CCOc1ccc2oc(C(=O)NC3CCN(Cc4ccccc4)CC3)c(C)c2c1	inconclusive: 23.1 µM [cytotoxic, single point]	–
O=C(Nc1ccc(Br)cc1)Nc1nc2c(s1)CCCCCC2	–	inactive: -6.93%
COc1ccc(-c2nnc(SCC(=O)NC3CCCc4ccccc43)n2N)cc1 (stereo not given)	–	inactive: 0.826%

2 consecutive records from above, quoted:
SMILES	Potency	activity change, negative = cytotoxic
COc1ccc(CCNC(=O)c2noc3c2CCCC3)cc1OC	inconclusive: 5.8 µM [rising, partial curve, poor fit]	–
O=C(c1ccc(OC2CCN(Cc3ccccc3C(F)(F)F)CC2)cc1)N1CCCCC1	inconclusive: 18.4 µM [cytotoxic, single point]	–
